Data published in PubChem BioAssay AID662 (National Center for Advancing Translational Sciences (NCATS), 2007).
This is one part of the list. These are further read-outs of the screen, such as a control signal, another cell line or another target. No call is given for them. Compounds called inactive in the main read-out are mostly missing here. Words in brackets tell the shape of the fitted curve; partial curves, single points and poor fits give uncertain potencies.

Assay: Cell signaling CRE-BLA (Fsk stim)
Details: CHO CRE-bla reporter (cAMP response element driving beta-lactamase), forskolin EC10, beta-lactamase ratio; measured here: 460 nm blue channel
How it was run: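 Reporter-gene assay: CHO cells with beta-lactamase behind cAMP responsive elements, co-treated with compound and EC10 NKH 477 for 3 hours at 37 degrees Celsius. Activity came from the 460/530 nm CCF4 emission ratio.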

Structure (SMILES)	AC50
Cc1ccc(S(=O)(=O)N2CCN(C(=O)CN3CCN(C)CC3)C2)cc1	0.251 µM [falling, full curve, poor fit]
COc1ccccc1C(=O)Nc1cccc(-c2cn3ccsc3n2)c1	2.51 µM [rising, full curve]
COc1nc(Nc2ccc(OC)c(Cl)c2)nc(OC)n1	7.94 µM [rising, partial curve]
O=C(CSc1nnc2scc(-c3ccccc3)n12)N1CCCc2ccccc21	10 µM [rising, partial curve, poor fit]
O=C(c1cnccn1)N1CCC[C@@]2(CCN(Cc3nccs3)C2)C1	5.01 µM [falling, single point]
O=P(O)(O)c1ccccc1OCCOCCOc1ccccc1P(=O)(O)O	25.1 µM [rising, single point]
COc1ccc(NC(=O)N2CC[C@@]3(CCCN(C(=O)c4ccco4)C3)C2)cc1	3.16 µM [falling, single point]
CCn1c(CNC(C)=O)nnc1SCC(=O)c1ccc(Br)cc1	25.1 µM [rising, partial curve]
Cc1oc(C)c2c(=O)ccc3c(c12)OC(N)=C(C#N)C3c1ccccc1 (stereo not drawn)	0.631 µM [rising, full curve]
Cc1cc(C)cc(NC2=NC3(CCCCC3)N=C(N)N2)c1	12.6 µM [rising, partial curve]
COCCn1c(=O)c(-c2cccs2)nc2cnc(Oc3cccc(Cl)c3)nc21	12.6 µM [rising, partial curve]
O=C(C1CCC1)N1CCc2cc(S(=O)(=O)N3CCc4ccccc4C3)ccc21	0.126 µM [falling, full curve, poor fit]
O=c1c(-c2ccc(F)cc2)nc2cnc(N3CCOCC3)nc2n1C[C@H]1CCCO1	0.631 µM [rising, full curve]
COc1cccc(Cn2c(=O)c(C)nc3cnc(OCc4ccccc4)nc32)c1	10 µM [rising, partial curve]
CN[C@@H](c1ccncc1)[C@@H](NC)c1ccncc1	1 µM [falling, single point]
COCCCNC(=O)c1ccc2c(=O)n(C3CCCC3)c(=S)[nH]c2c1	5.01 µM [falling, single point]
N#Cc1cccc(-c2nc3cnc(Nc4ccccc4)nc3n(C[C@H]3CCCO3)c2=O)c1	5.01 µM [rising, partial curve]
CC1CCC2(CC1)NC(=O)N(Cc1nc(-c3ccccc3)no1)C2=O (stereo not drawn)	6.31 µM [rising, partial curve]

Already shown: two of the compounds above.
Structure (SMILES)	AC50
Cc1cc(C)cc(NC2=NC3(CCCCC3)N=C(N)N2)c1	12.6 µM [rising, partial curve]
COCCn1c(=O)c(-c2cccs2)nc2cnc(Oc3cccc(Cl)c3)nc21	12.6 µM [rising, partial curve]
